Earlier results, collected in patent publication US20210353627A1, “NOVEL QUINAZOLINE EGFR INHIBITORS” (Spectrum Pharmaceuticals, Inc., priority 2018, published 2021).
Some of these results come from one statement about several compounds together.

Test system: HER2 mutant tumors
Conditions: patients with HER2 mutant tumors; many studies (Kosaka et al, 2017)

Structure (SMILES): CCOc1cc2ncc(C#N)c(Nc3ccc(OCc4ccccn4)c(Cl)c3)c2cc1NC(=O)/C=C/CN(C)C [neratinib]
- OR rates: below 40%
